Experimental data: article PMC10213050
Construct, isoform or probe ends are uncertain for at least one entry. Weaker means in comparison with the reference protein, sequence or condition of that experiment. For some of these results: Tags and fusion partners may be left off the protein sequences shown.

The chains behind the UniProt entries cited, without tags or fusion partners.
UniProt Q06609, whole entry: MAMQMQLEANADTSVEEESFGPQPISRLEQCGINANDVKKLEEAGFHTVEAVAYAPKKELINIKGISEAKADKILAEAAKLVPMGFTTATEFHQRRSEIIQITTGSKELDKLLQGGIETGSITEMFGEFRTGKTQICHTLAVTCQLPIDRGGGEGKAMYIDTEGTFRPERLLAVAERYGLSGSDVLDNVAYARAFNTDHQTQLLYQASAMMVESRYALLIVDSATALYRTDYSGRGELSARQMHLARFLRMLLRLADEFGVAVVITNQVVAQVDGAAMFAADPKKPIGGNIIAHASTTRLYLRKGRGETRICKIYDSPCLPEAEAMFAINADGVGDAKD

Assays:
Assay in all cases: pull-down
[1] = biological target: T1, Rad51 (Saccharomyces cerevisiae (yeast)) (UniProt P25454); settings: with RPA, which markedly inhibits Rad51 binding, alleviated by Bre1; Pull-down: 42 mM Tris-HCl pH 7.5, 15 mM KCl, 90 mM NaCl, 2 mM ATP, 1 mM EDTA, 0.5% NP-40, 1 mM DTT, 20 ug/mL BSA, 5% glycerol, 37 C; recombinant protein; residues 1-400; protein details: 6xHis (pET30a) or GST-cleaved; label: 5'-biotin; single-stranded DNA
T1 sequence (looked up): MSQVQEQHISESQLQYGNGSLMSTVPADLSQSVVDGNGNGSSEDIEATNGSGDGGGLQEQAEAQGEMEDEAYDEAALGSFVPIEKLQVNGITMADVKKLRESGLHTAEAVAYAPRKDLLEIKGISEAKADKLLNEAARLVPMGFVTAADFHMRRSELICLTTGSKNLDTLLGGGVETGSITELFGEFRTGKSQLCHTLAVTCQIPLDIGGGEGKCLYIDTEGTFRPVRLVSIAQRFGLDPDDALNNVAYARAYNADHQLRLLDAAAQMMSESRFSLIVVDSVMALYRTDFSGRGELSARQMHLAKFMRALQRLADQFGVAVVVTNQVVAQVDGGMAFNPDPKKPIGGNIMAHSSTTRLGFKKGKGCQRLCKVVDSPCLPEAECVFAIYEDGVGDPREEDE

hRad51 (Homo sapiens) = hRad51 (Homo sapiens) (UniProt Q06609); settings: on hRPA-coated ssDNA, stimulated by RNF20N; Pull-down: 42 mM Tris-HCl pH 7.5, 15 mM KCl, 90 mM NaCl, 2 mM ATP, 1 mM EDTA, 0.5% NP-40, 1 mM DTT, 20 ug/mL BSA, 5% glycerol, 37 C; recombinant protein; protein details: 6xHis or GST-cleaved; label: 5'-biotin; single-stranded DNA
[2] = biological target: T2, Srs2 (Saccharomyces cerevisiae (yeast)) (UniProt P12954); settings: Pull-down: 42 mM Tris-HCl pH 7.5, 15 mM KCl, 90 mM NaCl, 2 mM ATP, 1 mM EDTA, 0.5% NP-40, 1 mM DTT, 20 ug/mL BSA, 5% glycerol, 37 C, recombinant protein, residues 1-1174, protein details: GST (pGEX-6p-1), label: 5'-biotin, single-stranded DNA
T2 sequence (looked up): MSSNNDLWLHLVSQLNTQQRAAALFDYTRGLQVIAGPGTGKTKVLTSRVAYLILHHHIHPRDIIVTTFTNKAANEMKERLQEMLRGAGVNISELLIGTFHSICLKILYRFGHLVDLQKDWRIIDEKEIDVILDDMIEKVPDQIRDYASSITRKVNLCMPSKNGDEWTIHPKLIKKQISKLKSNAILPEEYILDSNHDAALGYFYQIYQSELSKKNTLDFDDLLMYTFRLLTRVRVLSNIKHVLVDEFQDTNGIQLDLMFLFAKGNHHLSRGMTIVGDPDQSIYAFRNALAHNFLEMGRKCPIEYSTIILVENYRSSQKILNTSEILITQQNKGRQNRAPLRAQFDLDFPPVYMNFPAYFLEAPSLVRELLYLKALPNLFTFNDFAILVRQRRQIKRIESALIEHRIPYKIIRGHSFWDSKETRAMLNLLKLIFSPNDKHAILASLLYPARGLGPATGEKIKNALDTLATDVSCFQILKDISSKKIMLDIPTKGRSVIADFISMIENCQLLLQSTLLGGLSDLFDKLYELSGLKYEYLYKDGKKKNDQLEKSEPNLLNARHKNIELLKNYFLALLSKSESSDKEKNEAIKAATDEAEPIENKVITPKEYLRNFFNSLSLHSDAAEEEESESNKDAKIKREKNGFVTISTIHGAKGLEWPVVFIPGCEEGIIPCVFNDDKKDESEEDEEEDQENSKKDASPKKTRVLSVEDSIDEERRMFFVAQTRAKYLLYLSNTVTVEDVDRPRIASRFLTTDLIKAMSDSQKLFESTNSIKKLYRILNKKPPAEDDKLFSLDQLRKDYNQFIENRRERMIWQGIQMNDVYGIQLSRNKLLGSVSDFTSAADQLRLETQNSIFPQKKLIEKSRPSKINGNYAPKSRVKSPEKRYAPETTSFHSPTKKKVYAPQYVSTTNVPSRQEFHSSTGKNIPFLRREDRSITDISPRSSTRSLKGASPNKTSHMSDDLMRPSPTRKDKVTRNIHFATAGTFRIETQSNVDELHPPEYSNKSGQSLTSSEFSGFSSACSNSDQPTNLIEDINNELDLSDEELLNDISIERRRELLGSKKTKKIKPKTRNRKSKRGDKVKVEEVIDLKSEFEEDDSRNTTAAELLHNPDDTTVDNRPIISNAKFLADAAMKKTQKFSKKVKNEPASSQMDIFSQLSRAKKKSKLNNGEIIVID

Measured: binding result

CGACAGGTCATGGCCGTACATGATATCCTCGAGCGTCCTGTTGCAACTTACACTCTGAATAGCCGAATTCTTAGGGTTAGGGTTAACA [90-nt ssDNA]
binds more weakly: [1] | hRad51 (Homo sapiens) | [2]; with Bre1, added before or after Srs2 | [2]; with Bre1-EK2A, Srs2 unloaded
